These are yes or no findings as the source states them, for the method shown. Binding seen in cells or lysates may run through a third protein. Some results given as binding are weak or reduced against the parent protein; the word gives no strength. Where a sequence is shown, tags or fusion partners need not be part of it.
Target: T1, glucose transporter-4 (Glut4) (mouse (endogenous in 3T3L1)) (UniProt P14142)
T1 sequence: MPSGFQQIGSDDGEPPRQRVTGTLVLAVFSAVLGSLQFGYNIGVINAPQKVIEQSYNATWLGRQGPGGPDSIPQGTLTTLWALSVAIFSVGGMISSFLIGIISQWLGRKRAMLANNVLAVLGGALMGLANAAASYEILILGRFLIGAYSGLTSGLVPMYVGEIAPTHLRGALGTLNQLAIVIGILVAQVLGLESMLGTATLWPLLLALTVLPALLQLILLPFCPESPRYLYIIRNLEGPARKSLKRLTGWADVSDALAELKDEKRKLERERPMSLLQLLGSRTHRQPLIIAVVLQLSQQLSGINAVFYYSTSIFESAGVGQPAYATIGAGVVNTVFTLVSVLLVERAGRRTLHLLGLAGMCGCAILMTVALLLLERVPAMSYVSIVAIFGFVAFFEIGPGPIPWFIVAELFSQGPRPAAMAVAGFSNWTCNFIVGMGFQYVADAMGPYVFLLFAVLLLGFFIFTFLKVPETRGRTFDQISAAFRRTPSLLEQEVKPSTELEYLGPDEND
Experiment: co-IP; 200 µL of 1 µg/µL 3T3-L1 lysate, precleared with Protein A/G agarose, rocked with 2 µg Glut4-agarose antibody overnight at 4 °C; western blot for sortilin and Glut4; control cells and cells over-expressing Sort^17b (48 h)

By UniProt entry, the sequences of proteins in these tests, tags left out. Where a name states a change or a piece, a line headed by the entry shows the natural chain unless it says otherwise. Residues count along the entry.
UniProt Q6PHU5, residues 74-825: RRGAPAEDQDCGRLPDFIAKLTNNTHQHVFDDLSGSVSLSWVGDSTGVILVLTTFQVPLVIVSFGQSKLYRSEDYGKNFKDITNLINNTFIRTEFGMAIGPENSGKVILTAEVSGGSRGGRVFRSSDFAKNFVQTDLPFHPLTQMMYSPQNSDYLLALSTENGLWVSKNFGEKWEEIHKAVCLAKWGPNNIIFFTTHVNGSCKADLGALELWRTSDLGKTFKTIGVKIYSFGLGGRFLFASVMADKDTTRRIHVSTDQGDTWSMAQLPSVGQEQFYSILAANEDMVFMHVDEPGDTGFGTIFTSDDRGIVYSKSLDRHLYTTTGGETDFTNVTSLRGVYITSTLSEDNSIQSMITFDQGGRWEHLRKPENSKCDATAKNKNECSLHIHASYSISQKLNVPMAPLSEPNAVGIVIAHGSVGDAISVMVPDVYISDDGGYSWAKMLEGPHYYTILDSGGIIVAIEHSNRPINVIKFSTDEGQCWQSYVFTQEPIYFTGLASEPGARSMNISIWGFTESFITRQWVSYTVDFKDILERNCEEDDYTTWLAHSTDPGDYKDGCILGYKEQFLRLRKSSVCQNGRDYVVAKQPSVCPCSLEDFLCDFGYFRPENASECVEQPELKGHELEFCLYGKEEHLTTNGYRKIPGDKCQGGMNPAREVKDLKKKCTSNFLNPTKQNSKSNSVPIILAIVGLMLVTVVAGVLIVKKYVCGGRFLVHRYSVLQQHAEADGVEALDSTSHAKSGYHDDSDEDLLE

## sortilin wildtype splice variant (Sort^WT) (from UniProt Q6PHU5 74-825)
  binding: binds

Reference: publication PMC7863940
